{"source": "patent US20260345654A1", "about": "“2,8-DIHYDROXYQUINOLINE GLUCURONIDE DERIVATIVES WITH ENHANCED PROPERTIES FOR USE AS ANTICANCER, ANTIVIRAL, ANTIMICROBIAL, AND OTHER THERAPEUTIC APPLICATIONS” (priority 2023, published 2026)", "system": "beta-glucosidase", "test": "Requirement of beta-glucosidase for activity / cleavage"}
{"molecule": "O=C(O)[C@H]1O[C@@H](Oc2ccc3cccc(O)c3n2)[C@H](O)[C@@H](O)[C@@H]1O", "note": "[G2-8HQ, 8-Hydroxy-2-quinolinyl beta-D-glucopyranosiduronic acid]", "values": [{"measurement": "Require Beta glucosidase", "value": "beta-glucosidase is not required and active without beta-glucosidase and No"}]}
